Assay results reported in patent publication US10519504B2, “Methods for treatment of oncological disorders using epimetabolic shifters, multidimensional intracellular molecules, or environmental influencers” (Berg LLC, priority 2009, dated 2019).

System: SK-MEL-28 mitochondria
Details: 100 μM Q10

COC1=C(OC)C(=O)C(C/C=C(\C)CC/C=C(\C)CC/C=C(\C)CC/C=C(\C)CC/C=C(\C)CC/C=C(\C)CC/C=C(\C)CC/C=C(\C)CC/C=C(\C)CCC=C(C)C)=C(C)C1=O [Q10, Coenzyme Q10]
levels of Q9: low, and near the level of detection
Cholesterol (48 hr Q10 treated): 13.86 μg/sample
